Measurements: PMC4666660
These are yes or no findings as the source states them, for the method shown. Binding seen in cells or lysates may run through a third protein. Some binding calls cover weakened binding; strength is not graded here. For part of these data: Tags and fused reporters may be left off the sequences shown.

Key:
[1] = target: T1, TOPI-6MYC (Drosophila) (UniProt Q9VH70); test: co-IP; S2 cell extracts coexpressing MED22-3HA with or without the 6MYC-tagged partner; immunoprecipitated with anti-MYC, blotted with anti-HA
T1 sequence: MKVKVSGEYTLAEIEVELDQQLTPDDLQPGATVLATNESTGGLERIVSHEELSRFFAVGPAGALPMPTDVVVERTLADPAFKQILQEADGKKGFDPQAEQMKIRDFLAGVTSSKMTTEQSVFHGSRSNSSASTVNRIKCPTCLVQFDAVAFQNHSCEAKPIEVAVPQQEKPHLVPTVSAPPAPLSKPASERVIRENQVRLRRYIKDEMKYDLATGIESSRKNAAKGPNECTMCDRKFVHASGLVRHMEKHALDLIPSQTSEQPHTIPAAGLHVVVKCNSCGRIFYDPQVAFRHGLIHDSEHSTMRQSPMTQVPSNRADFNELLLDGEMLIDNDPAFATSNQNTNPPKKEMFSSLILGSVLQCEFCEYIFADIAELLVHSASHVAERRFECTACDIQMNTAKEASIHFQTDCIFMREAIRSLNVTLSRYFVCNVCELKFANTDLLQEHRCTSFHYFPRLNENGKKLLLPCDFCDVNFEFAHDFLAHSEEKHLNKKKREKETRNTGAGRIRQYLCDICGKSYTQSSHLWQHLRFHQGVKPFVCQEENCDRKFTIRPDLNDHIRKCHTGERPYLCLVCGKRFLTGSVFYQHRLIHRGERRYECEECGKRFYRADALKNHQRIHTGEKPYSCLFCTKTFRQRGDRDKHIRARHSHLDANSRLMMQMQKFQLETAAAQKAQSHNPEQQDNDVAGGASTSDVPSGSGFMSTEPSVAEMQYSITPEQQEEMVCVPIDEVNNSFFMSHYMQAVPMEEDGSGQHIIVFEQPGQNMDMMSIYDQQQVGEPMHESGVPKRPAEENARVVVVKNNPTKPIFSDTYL

[2] = target: T2, mCherryV5-Med22 (Drosophila) (UniProt Q9V439); test: co-IP; testis extracts of V5-MED22 or y.w. males, 200 pairs of testes per IP; immunoprecipitated with anti-V5, blotted with anti-MED26 or anti-MED17
T2 sequence: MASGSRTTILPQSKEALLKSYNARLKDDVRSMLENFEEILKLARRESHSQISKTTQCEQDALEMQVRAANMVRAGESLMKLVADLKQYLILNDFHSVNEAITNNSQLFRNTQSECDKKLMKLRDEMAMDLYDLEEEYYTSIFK

B1: MED22-3HA (protein, UniProt Q9V439 1-143)
chain: T2 sequence
binding [1]: binds

B2: MED26 (protein, UniProt Q9V4F9 1-1483)
chain: MNQIEIQELTTHLSQALDQNYDVVNMDAVLCVICALEGTTITKEQLEATRLAKYINQLRRRTKNEHLARRAKSLLKKWREMVGIQQTATENLAHPSQISSSQPALDLVKSPITSFITEPIAPSQQIVSDLHSNIDSAEPPLSGEHTLLHPNFSNLVNSIKDSDRHENIAITTLHTHKDRRHSHSIRSCHVASPQPIVIDHSVNSVINLTDDSTVKINEASVVIDIASDSDENDNNGSLNPKKLNSIVPAPLPIPSTPSSRQRKLKKEKRSKEREGQVATNTRFGAKASDGFQQAALTTDSEIFSLSNSSMSSIVSGDATSSYSQNKSRLNSNELTFTGRFKAVDHLFRSTESGKHKIDEYSAYDSNASCSRLSPSTVDEVKKAEHLFDAQLTNTTANQIPMSAVSIGYESNTRHEYLESDSPSQIPKRRGRKKGSKGVDALIAKESSSLSQQIFFGGSTVKKVKTTKELFNEIQSRKLSVSMQSSASNLSNSSTNRDLPSHTTFPRQTSSCSDTSMNSPHILETLSGSAIFASKIDDLGNTDSDTVTSDPSHDSNKSQEIKECTSLDSNSNSIQSLPLANNRENLIPTNVNDITTQLMHLIHSLNSPLSEIEIERVYQEKIIPCTCIVIEGVQGTLGESNNSTLDEQSYNAKISLNSKDNLSCHNQDNYSTSQRSVNGEVIDTQPKLVKSIFDLDFDDNDDPLYFIMDEIQKPIARADELKNNKSDTKNINFGASAQNASLNIIHFNDDAQQDNSNQERGKNETQNAIPAFTVHEDPDCLARQRFYIQTNKVTSFHINALHNYYIPNINGNWDSVESFTSFQSEHTIMDTMESYTVTNGADVVPKYGLLTSDRIRKDLSSLKSIKPYRVKNFTSLISPFLGVAKCLPTCRRARRRFKNFVNSSTANDKISNNFESLENMKTSFKNCNPLNVKIDGTTSAIYSHNENHVPMQVNTNVEQLPPSQSFSSNAISYNLLKLADDKVCHDGISDKSSNTGCQGNSPYSSSSSSSYSGRKEDQHIITKNLQNKNIQLNSRKSDMKRRKRIYLENDSKKKKHYRKRIKTAVNRTFSNLHRNLYSIDSENGMKNDYKNEYGNSNNEEYAIVQRPAGDGENCSNHIVLTIKKTPSKINSPANSMTAFSPPSTSDGANLQKSILDLRLEDTNISQSITEIPQKKDLSKTDRIVHQSRSSAYRRIFRKPDKSQTKFIDLDLKHLFHLKANSPCISANAKLHNKLFFPHELSRDNTSGIRERLINYSSSSSSSYDDDSEVENTSFLKKANVNKFSASNNRNLKTETETCAATAISEFKFESDEDSILTSLGDSDIDIQDEIQVINDKVDYCNDFQNNKMLESFNSIFVDSLRTNTKNASDNMGSSAHITSLESLKPENADAITRYCNNNNLGVNLSNELSNISAKPLKSFDSTMKLPSLGIEHCTGIKTSSDMASTNIAEKKLTRIQQFKEWHQVLQLRSYNNEPLIVLPYVLLE
binding [2]: binds

B3: MED17 (protein, UniProt Q9VEC1 1-642)
chain: MSNSVNISVETTCENQIREIGYDGTELYQPPPTLSESLAKCAARIDFSKTSLDDLKKEEKSAAAAADEDKDATQFQESLWPWDAVRNKLKDALTEICVLSDVISIAKDKRYLVLDPLLEEADDTKPIVQVYSRKKAISQAAQVLLSGAERLRNAHSEQRNRNVSDFHIELLRLRQNWRLKKVSNAIIGDLSYRTAGSKFGMSGTFEVTKAEETGDEDTASSSNSSSSVSGNNGMQLKASSALRVIVPAELQGVAYIKVITQKDQEDLCTAQLNLMGHGPNITAQVGVWQKTLEFAQNVLFCKELFAQLAREAIQLQAPIPHVVIGNQIRATLLPNIQLIISLCHSTTFDSSQPAPINDHDHVLEHSLHQLLREVHYKNSHHPFPHPASAPLGPTKKRMLAGPMAADRETLLDMTKSQTILEQIIAQAQHIFMRKRTQYVLDTLARDVKDPQIVSHWNAMNSPTMSCVKINIVTHGYDAIGRTSLVIHVKERSLKCICRDGRVMRLSYEPQELRDLILCQINSHQISCLISLARCMSWTVLSNSNHLGIGKVEPLGNASSCLLASPNSDRMIAVQIRCDPQIDVKVYIARSPRQDFFPSPLVPEKLWENLGGTFKEVRFDKIEGKSFLNKMEFLMASLTSNTA
binding [2]: binds
